Source: patent US20120192315A1, “RESISTANCE GENES AND PROTEINS ACTIVE AGAINST FUSARIUM ROOT ROTS, CYST NEMATODES AND SOYBEAN SUDDEN DEATH SYNDROME AND METHODS EMPLOYING SAME” (Southern Illinois University Carbondale, priority 2011, published 2012)
No constants are given. Whether binding was seen depends on the method and setting. Some results given as binding are weak or reduced against the parent protein; the word gives no strength. Tags and fused reporters may be left off the sequences shown.

Experiments:
[1] = biological target: T1, purified GmRLK18-1 LRR domain (6x his-RHG1) (Glycine max); assay: Far-Western of 2D gel separated soybean root proteins probed with the His tagged LRR domain, MS identification
T1 sequence: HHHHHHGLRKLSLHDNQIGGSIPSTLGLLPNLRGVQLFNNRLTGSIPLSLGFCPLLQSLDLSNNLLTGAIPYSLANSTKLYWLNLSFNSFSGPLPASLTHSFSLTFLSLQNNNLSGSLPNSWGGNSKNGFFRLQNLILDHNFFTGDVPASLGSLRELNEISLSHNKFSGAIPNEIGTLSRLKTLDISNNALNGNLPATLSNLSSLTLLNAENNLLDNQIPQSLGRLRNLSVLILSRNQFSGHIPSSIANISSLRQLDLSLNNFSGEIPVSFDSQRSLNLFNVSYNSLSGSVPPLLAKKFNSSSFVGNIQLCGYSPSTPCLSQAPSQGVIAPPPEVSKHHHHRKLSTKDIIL

[2] = biological target: T1, purified GmRLK18-1 LRR domain (6x his-RHG1) (Glycine max); assay: Far-Western of root proteins at 42 dap (28 dai), Anti-His-HRP detection, Q-TOF MS-MS

binding [1]: binds
binding [2]: binds
B1: methionine synthase [Glycine max] (enzyme)
chain: MASHIVGYPRMGPKRELKFALESFWDGKSSAEDLQKVSSDLRASIWKQMADAGIKYIPSNTFSHYDQVLDATATLGAVPPRYGWTGGEIGFDTYFSMARGNATVPAMEMTKWFDTNYHFIVPELGPDVNFTYASHKAVDEYKEAKALGVDTVPVLVGPVTYLLLSKPAKGVEKSFSLLSLLPKVLAVYKEVIADLKAAGASWIQFDEPTLVLDLESHKLQAFTDAYAELAPALSGLNVLVETYFADIPAEAYKTLTSLNGVTAYGFDLVRGTNTLDLIKGGFPSGKYLFAGVVDGRNIWANDLAASLTTLQGLEGIVGKDKLVVSTSSSLLHTAVDLVNETKLDDEIKSWLAFAAQKIVEVNALAKALSGHKDEAFFSGNAAALASRKSSPRVTNEAVQKAAAALKGSDHRRATNVSARLDSQQKKLNLPILPTTTIGSFPQTVELRRVRREFKANKISEEEYVKSIKEEIRKVVELQEELDIDVLVHGEPERNDMVEYFGEQLSGFAFTVNGWVQSYGSRCVKPPIIYGDVSRPKPMTVFWSSLAQSFTKRPMKGMLTGPVTILNWSFVRNDQPRSETTYQIALSIKDEVEDLEKAGITVIQIDEAALREGLPLRKSEQAHYLDWAVHAFRITNVGVQDTTQIHTHMCYSNFNDIIHSIIDMDADVITIENSRSDEKLLSVFREGVKYGAGIGPGVYDIHSPRIPPTEEIADRINKMLAVLEKNILWVNPDCGLKTRKYTEVKPALTNMVAAAKLIRNELAK
